Measured values reported in patent publication US20160311919A1.
Results are given in words; binding and its absence hold for the method and conditions named. Some entries that bind do so weakly or less than the wild type.

By UniProt entry, the sequences of proteins in these tests, tags left out. Where a name states a change or a piece, a line headed by the entry shows the natural chain unless it says otherwise.
UniProt Q14956: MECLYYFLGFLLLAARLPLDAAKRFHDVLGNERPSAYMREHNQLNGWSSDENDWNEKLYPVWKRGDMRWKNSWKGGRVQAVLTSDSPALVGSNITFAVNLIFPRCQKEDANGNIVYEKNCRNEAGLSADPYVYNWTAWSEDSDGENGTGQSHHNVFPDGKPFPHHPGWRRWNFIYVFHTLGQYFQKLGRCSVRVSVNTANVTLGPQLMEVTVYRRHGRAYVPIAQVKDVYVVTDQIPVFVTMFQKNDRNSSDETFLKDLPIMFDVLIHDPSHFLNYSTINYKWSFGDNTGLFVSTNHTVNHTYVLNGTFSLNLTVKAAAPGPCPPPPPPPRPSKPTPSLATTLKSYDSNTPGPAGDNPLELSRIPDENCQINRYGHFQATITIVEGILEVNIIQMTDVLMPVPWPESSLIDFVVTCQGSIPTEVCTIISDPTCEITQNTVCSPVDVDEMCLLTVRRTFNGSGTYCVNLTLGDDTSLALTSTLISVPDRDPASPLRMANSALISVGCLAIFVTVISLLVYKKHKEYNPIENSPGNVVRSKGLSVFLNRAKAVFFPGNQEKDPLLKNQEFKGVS

Biological target: GPNMB (CG56972), native full-length protein on the cell surface or in cell lysates (human) (UniProt Q14956)
Assay: FACS, UACC-62 cells, Ab 1 ug/mL

B1: Mab2.22.1 (antibody, human IgG2, V domains shown)
VH: QVQLEQSGPGLVKPSQNLSLTCTVSGGSISSGGYFWSWIRQHPGKGLEWIGYIYYSGNTYYNPSLKSRVTISVDTSKNQFSLKLSSVTAADTAVYYCARDYYYDTSGFSYRYDWYYGMDVWGQGTTVTVSS
VL: DIQLTQSPSSLSASVGDRVTITCRASQGIRNDLGWYQQKPGKAPKRLIYAASSLQNGVPSRFSGSGSGTEFTLTISSLQPEDFATYYCLQHNTYPAFGQGTKVEIKR
binding: binds
